According to the supplement of paper PMC11732987, “Enantioselective OTUD7B fragment discovery through chemoproteomics screening and high-throughput optimisation” (Communications Chemistry, 2025):
The other results are listed elsewhere or left out. The data scatter; read single values as rough.

The chains behind the UniProt entries cited, without tags or fusion partners. Where a name states a change or a piece, a line headed by the entry shows the natural chain unless it says otherwise. Residues count along the entry.
UniProt Q9H8G2, 215-234: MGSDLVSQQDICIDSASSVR
UniProt Q9NSG2: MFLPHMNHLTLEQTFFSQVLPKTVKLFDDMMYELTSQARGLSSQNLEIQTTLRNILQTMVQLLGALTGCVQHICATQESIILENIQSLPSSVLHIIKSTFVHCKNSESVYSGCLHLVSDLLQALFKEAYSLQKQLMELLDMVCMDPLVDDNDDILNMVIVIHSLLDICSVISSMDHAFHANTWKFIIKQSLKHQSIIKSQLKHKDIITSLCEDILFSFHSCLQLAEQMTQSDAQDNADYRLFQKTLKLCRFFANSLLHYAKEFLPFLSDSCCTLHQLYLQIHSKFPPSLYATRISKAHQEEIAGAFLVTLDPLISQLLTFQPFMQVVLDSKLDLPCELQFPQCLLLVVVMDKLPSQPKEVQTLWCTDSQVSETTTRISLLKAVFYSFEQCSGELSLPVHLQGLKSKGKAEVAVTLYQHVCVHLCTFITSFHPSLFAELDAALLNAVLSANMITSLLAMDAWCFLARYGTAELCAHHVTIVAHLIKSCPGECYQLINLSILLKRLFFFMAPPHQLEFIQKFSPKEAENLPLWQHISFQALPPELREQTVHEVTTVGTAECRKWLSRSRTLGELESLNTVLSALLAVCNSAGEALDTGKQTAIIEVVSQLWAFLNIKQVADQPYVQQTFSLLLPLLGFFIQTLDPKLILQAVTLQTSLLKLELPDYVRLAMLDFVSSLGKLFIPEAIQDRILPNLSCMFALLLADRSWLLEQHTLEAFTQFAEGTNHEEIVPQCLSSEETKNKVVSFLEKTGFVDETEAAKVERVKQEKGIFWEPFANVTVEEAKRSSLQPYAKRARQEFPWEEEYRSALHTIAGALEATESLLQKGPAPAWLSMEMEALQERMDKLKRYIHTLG
UniProt Q9BX63: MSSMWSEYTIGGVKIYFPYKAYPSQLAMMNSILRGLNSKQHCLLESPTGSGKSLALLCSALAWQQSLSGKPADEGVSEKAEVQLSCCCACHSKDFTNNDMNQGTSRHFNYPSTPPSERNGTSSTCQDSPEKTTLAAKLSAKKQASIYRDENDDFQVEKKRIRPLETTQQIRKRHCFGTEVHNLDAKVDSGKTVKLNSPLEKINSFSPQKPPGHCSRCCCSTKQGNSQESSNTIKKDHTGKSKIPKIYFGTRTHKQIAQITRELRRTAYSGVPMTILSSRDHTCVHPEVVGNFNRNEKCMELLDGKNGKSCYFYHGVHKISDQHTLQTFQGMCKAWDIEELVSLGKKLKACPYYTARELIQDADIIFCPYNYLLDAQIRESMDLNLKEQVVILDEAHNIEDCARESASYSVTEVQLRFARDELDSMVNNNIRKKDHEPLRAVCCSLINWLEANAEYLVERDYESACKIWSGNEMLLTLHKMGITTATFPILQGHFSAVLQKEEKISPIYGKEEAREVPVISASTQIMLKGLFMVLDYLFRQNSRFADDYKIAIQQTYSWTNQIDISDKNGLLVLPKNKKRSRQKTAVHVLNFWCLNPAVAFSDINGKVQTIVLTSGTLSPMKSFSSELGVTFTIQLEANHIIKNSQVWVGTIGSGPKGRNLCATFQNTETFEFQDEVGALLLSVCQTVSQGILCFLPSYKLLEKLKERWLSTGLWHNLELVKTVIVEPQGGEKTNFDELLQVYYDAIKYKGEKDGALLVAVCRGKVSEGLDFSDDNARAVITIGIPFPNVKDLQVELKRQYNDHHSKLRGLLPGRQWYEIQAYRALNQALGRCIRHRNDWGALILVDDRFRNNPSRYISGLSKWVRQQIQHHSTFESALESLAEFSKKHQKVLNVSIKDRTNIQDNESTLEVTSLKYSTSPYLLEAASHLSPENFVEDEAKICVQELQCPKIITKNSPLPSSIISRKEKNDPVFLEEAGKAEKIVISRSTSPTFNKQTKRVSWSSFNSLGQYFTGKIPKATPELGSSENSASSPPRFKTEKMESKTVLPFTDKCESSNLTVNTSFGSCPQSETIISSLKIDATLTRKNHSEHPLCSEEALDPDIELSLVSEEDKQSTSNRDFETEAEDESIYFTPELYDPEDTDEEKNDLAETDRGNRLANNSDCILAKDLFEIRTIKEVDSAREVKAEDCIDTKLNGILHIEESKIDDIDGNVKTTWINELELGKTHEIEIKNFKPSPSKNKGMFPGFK
UniProt P35520, 337-359: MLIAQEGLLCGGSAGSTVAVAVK
UniProt Q8NFC6, 867-895: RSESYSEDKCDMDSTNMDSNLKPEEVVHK
UniProt P47756: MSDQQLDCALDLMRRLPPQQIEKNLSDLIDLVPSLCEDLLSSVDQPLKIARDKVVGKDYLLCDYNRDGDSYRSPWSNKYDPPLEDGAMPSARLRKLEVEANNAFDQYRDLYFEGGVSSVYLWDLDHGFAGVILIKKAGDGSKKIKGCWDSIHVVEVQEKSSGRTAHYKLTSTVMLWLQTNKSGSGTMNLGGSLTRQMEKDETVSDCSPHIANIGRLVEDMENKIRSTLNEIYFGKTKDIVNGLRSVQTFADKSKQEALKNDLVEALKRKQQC
UniProt Q96GS4: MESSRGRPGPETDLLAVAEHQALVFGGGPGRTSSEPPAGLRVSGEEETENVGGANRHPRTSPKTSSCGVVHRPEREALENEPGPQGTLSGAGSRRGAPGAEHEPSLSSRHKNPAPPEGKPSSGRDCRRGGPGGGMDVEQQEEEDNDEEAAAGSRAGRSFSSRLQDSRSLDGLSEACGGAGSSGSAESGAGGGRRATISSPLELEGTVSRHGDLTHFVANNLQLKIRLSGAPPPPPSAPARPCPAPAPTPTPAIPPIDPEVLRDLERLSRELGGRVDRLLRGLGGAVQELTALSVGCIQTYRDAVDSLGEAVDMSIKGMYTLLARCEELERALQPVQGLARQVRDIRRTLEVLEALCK
UniProt Q9NZ63: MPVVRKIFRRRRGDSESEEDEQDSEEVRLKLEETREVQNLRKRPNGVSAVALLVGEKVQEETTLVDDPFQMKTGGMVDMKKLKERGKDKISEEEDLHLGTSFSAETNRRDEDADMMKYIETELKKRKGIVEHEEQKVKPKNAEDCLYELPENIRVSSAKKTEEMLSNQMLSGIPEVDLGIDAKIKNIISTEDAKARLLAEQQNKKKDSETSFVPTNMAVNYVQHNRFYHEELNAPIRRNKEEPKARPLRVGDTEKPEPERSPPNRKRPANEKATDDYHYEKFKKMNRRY
UniProt Q6PGQ7: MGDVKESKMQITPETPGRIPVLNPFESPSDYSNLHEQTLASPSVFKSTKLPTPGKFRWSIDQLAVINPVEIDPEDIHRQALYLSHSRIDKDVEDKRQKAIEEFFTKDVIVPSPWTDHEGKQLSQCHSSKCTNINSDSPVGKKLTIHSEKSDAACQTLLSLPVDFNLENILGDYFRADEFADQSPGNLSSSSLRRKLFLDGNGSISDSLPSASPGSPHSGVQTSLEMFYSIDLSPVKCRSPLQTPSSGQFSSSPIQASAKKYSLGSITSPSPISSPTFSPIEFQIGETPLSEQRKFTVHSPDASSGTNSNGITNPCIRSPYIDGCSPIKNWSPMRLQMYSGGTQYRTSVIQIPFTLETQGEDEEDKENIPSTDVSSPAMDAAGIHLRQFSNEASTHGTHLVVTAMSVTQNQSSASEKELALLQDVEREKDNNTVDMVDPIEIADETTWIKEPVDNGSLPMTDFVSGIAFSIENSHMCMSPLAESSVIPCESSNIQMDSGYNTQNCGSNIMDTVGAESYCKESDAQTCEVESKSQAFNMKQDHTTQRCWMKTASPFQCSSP
UniProt Q9BSJ5: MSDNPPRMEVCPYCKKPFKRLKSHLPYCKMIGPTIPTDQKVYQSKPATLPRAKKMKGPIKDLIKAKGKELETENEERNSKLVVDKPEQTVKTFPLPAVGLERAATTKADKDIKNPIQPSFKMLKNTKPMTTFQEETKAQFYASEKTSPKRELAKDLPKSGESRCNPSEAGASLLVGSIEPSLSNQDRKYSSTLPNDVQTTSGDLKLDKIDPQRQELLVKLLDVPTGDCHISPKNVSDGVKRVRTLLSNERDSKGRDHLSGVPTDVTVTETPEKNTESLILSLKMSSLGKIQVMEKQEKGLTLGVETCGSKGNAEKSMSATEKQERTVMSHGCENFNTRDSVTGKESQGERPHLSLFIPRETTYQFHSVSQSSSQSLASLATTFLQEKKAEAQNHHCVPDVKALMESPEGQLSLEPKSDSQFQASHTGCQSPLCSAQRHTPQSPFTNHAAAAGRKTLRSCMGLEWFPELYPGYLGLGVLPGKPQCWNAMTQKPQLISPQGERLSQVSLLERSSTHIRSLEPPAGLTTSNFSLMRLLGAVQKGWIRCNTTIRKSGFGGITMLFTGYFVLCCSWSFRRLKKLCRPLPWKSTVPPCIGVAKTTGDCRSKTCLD
UniProt Q7Z569: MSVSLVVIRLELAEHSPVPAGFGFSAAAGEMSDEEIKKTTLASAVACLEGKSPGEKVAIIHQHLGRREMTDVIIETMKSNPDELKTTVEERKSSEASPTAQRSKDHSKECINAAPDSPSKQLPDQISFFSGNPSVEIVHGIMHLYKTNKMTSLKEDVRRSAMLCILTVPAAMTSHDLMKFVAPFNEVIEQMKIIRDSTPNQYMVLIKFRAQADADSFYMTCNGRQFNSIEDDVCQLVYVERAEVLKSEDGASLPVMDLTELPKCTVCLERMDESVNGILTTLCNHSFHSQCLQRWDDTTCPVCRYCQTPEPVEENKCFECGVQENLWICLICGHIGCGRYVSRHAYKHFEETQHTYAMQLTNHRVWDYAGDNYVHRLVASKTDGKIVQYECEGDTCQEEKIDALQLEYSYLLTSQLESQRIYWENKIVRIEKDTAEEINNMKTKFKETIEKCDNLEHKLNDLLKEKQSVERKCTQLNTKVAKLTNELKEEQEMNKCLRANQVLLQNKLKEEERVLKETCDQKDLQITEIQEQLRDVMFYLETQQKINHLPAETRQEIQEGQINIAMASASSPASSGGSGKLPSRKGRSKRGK
UniProt O43684: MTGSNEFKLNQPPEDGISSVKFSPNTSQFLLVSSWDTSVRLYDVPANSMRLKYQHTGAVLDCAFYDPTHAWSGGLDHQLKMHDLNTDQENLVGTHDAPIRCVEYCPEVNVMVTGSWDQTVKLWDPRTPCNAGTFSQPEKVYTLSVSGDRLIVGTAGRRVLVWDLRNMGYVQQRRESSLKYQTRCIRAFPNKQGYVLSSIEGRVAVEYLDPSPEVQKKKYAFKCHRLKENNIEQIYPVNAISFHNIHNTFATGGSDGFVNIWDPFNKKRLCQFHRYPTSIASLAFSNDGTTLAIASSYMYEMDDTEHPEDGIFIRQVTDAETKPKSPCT
UniProt Q96B45: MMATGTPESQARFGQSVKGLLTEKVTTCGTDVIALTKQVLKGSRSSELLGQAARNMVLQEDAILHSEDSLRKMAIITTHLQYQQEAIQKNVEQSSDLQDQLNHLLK
UniProt O43683: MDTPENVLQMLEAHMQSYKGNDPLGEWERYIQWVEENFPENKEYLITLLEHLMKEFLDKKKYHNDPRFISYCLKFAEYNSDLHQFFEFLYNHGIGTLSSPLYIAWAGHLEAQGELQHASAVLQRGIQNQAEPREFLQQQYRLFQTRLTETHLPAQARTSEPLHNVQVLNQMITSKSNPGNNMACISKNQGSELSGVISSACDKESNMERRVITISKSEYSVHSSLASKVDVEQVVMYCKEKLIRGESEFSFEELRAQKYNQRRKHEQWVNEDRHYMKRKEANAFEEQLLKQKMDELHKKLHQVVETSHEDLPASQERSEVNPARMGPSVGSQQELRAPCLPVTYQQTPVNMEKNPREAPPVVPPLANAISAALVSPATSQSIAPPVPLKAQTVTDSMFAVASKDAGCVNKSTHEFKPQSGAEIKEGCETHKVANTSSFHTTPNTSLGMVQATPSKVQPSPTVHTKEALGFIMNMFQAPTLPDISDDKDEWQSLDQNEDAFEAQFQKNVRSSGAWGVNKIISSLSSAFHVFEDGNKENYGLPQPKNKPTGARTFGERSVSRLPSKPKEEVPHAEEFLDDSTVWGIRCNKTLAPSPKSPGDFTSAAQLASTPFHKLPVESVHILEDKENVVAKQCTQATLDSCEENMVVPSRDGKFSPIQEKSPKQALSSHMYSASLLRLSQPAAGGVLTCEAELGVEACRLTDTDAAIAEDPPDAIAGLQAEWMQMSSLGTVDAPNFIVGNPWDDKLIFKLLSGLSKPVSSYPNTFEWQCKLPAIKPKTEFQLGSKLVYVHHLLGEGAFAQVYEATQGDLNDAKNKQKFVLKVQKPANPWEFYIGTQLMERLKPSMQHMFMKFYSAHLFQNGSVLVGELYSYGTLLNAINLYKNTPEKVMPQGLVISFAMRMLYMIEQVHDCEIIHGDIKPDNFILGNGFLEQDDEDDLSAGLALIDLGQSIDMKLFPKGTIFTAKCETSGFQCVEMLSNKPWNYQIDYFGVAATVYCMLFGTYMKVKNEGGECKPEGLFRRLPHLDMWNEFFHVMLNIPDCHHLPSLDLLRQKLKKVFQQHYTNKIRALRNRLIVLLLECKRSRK
UniProt Q9HB71: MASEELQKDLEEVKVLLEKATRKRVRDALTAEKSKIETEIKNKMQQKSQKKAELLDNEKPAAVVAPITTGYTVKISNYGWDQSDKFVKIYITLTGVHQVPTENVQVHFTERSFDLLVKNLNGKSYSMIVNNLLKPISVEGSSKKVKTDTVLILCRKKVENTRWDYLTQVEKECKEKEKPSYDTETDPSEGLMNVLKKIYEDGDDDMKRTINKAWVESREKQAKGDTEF

Experiments:
[1] = compound: ClCC(=O)N[C@@H]1CCCc2ccccc12; experiment: log2 mean competition ratio of IA-DTB cysteine labelling (DMSO/compound) (log2 ratio); higher = stronger cysteine engagement by compound; details: treatment time: 4 h, cell line lysate: HEK293T
Experimental: (§1)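 IA-DTB competitive cysteine chemoproteomics in HEK293T RIPA lysate. Lysates were treated with compound 29 or 30 at 50 or 200 µM for 4 h, then IA-DTB (500 µM, 1 h), trypsin-digested, NeutrAvidin-enriched and analysed by diaPASEF. Competition ratio = intensity DMSO / intensity compound (n=4 treated, n=64 DMSO); binding: mean log2 CR ≥ 1 and p ≤ 0.05 plus QC filters. Target is the cysteine site.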

[2] = compound: ClCC(=O)N[C@H]1CCCc2ccccc12; experiment: as above; details: treatment time: 4 h, cell line lysate: HEK293T
Experimental: as §1

| Target | log2 mean competition ratio ([1]; 50 µM) | log2 mean competition ratio ([1]; 200 µM) | log2 mean competition ratio ([2]; 50 µM) | log2 mean competition ratio ([2]; 200 µM) |
| --- | --- | --- | --- | --- |
| CAAP1 C226 (UniProt Q9H8G2) | -0.125 | 0.167 |  |  |
| CASP2 C343 (UniProt P42575) | 0.0696 | -0.311 |  |  |
| BRD1 C805 | 0.058 | -0.0114 |  |  |
| C1orf112 C559 (UniProt Q9NSG2) | -0.0397 | 0.0117 |  |  |
| BRIP1 C42 (UniProt Q9BX63) | -0.3 | 0.47 |  |  |
| BRPF3 C981 | -0.141 | -0.348 |  |  |
| CAD C897 | -0.0904 | 0.0754 |  |  |
| CAND2 C945 (UniProt O75155) | 0.0715 | 0.0605 |  |  |
| BOLA1 C126 (UniProt Q9Y3E2) | 0.158 | -0.0666 |  |  |
| BRD1 C895 | -0.185 | -0.203 |  |  |
| CAMKV C301 | -0.113 | -0.12 |  |  |
| CBS C109 (UniProt P35520) | -0.105 | -0.0194 |  |  |
| BOD1L1 C1170 (UniProt Q8NFC6) | -0.265 | 0.000872 |  |  |
| CAMK2D C481 (UniProt Q13557) | -0.00503 | -0.456 |  |  |
| CALCOCO2 C321 (UniProt Q13137) | -0.186 | -0.194 |  |  |
| BOD1L1 C1618 (UniProt Q8NFC6) | -0.165 | -0.0412 |  |  |
| CBS C346 (UniProt P35520) | -0.379 | 0.495 |  |  |
| CAD C787 | 0.108 | -0.136 |  |  |
| C2CD5 C142 (UniProt Q86YS7) | -0.0976 | 0.0321 |  |  |
| C15orf39 C892 (UniProt Q6ZRI6) | -0.111 | -0.144 |  |  |
| CAPZB C147 (UniProt P47756) | 0.24 | 0.0241 |  |  |
| CAPN15 C271 (UniProt O75808) | -0.329 | 0.38 |  |  |
| BORCS6 C356 (UniProt Q96GS4) | 0.0404 | -0.197 |  |  |
| BTAF1 C914 (UniProt O14981) | 0.405 | 0.963 |  |  |
| BRME1 C79 | 0.29 | 0.0592 |  |  |

| Target | log2 mean competition ratio ([1]; 50 µM) | log2 mean competition ratio ([1]; 200 µM) | log2 mean competition ratio ([2]; 50 µM) | log2 mean competition ratio ([2]; 200 µM) |
| --- | --- | --- | --- | --- |
| CAST C328 (UniProt P20810) | 0.0425 | -0.117 |  |  |
| C9orf78 C145 (UniProt Q9NZ63) | -0.243 | -0.17 |  |  |
| BORA C130 (UniProt Q6PGQ7) | 0.0432 | 0.152 |  |  |
| CAMSAP1 C272 (UniProt Q5T5Y3) | -0.143 | 0.134 |  |  |
| BRCA1 C1251 (UniProt P38398) | -0.263 | -0.165 |  |  |
| CARS2 C387 (UniProt Q9HA77) | -0.212 | -0.212 |  |  |
| BRIP1 C401 (UniProt Q9BX63) | -0.474 | -0.0537 |  |  |
| CBS C370 (UniProt P35520) | 0.159 | 0.191 |  |  |
| BPTF C20 | -0.0822 | 0.0487 |  |  |
| CBR3 C143 (UniProt O75828) | 0.378 | 0.413 |  |  |
| CAND2 C240 (UniProt O75155) | 0.201 | 0.173 |  |  |
| C12orf29 C294 (UniProt Q8N999) | -0.156 | 0.0472 |  |  |
| BPTF C882 | -0.032 | -0.276 | -0.465 | -0.161 |
| CASC3 C36 (UniProt O15234) | -0.0638 | 0.24 |  |  |
| CBR3 C150 (UniProt O75828) | 0.28 | -0.02 |  |  |
| CAPZA2 C111 (UniProt P47755) | -0.204 | 0.0624 |  |  |
| C7orf26 C145 (UniProt Q96N11) | 0.207 | -0.0286 |  |  |
| CASP6 C264 (UniProt P55212) | -0.0735 | 0.0102 |  |  |
| C17orf80 C332 (UniProt Q9BSJ5) | 0.317 | 0.111 |  |  |
| C9orf72 C5 (UniProt Q96LT7) | -0.191 | -0.0872 |  |  |
| CADPS2 C919 | -0.208 | -0.226 |  | -0.323 |
| CAPN2 C341 (UniProt P17655) | -0.00347 | -0.208 |  |  |
| BZW2 C270 (UniProt Q9Y6E2) | 0.0847 | 0.446 |  |  |
| BRAP C110 (UniProt Q7Z569) | -0.167 | -0.0845 |  |  |
| CALR C105 | 0.072 | -0.0281 | 0.000689 | -0.157 |

Random excerpt: two records from the list

| Target | log2 mean competition ratio ([1]; 50 µM) | log2 mean competition ratio ([1]; 200 µM) | log2 mean competition ratio ([2]; 50 µM) | log2 mean competition ratio ([2]; 200 µM) |
| --- | --- | --- | --- | --- |
| BRIP1 C401 (UniProt Q9BX63) | -0.474 | -0.0537 |  |  |
| BRAP C110 (UniProt Q7Z569) | -0.167 | -0.0845 |  |  |

Continued:

| Target | log2 mean competition ratio ([1]; 50 µM) | log2 mean competition ratio ([1]; 200 µM) | log2 mean competition ratio ([2]; 50 µM) | log2 mean competition ratio ([2]; 200 µM) |
| --- | --- | --- | --- | --- |
| BRIP1 C1164 (UniProt Q9BX63) | -0.0056 | 0.0122 |  |  |
| CAPN1 C351 | 0.0945 | -0.161 |  |  |
| BUB3 C129 (UniProt O43684) | -0.127 | -0.113 |  |  |
| BOD1L1 C876 (UniProt Q8NFC6) | -0.253 | -0.165 | -0.683 | -0.422 |
| BOD1L1 C2164 (UniProt Q8NFC6) | -0.229 | -0.00641 |  |  |
| BRIX1 C52 (UniProt Q8TDN6) | -0.0604 | -0.187 |  |  |
| CARMIL2 C1339 (UniProt Q6F5E8) | 0.0212 | -0.133 | 0.283 | -0.0312 |
| BRCA2 C3198 (UniProt P51587) | 0.0687 | -0.357 |  | -0.34 |
| CAMKK2 C4 (UniProt Q96RR4) | -0.115 | 0.119 |  |  |
| CAMSAP2 C512 (UniProt Q08AD1) | 0.0645 | -0.0241 | 0.165 | -0.0761 |
| BORCS7 C28 (UniProt Q96B45) | 0.186 | 0.0419 |  |  |
| BRCA2 C822 (UniProt P51587) | 0.233 | 0.115 |  | -0.198 |
| BUB1 C1013 (UniProt O43683) | -0.173 | 0.345 | -0.335 | 0.102 |
| CARNMT1 C180 (UniProt Q8N4J0) | 0.00289 | -0.156 |  |  |
| CAMK1D C182 (UniProt Q8IU85) | 0.164 | -0.127 |  |  |
| CAMK2D C273 (UniProt Q13557) | 0.161 | -0.094 | 0.124 | -0.153 |
| CBX2 C89 (UniProt Q14781) | 0.0404 | -0.0731 |  | -0.02 |
| C17orf75 C357 (UniProt Q9HAS0) | 0.000746 | -0.0849 |  |  |
| CACYBP C173 (UniProt Q9HB71) | -0.215 | 0.199 |  |  |
| C2CD5 C831 (UniProt Q86YS7) | 0.481 | -0.437 |  |  |
| CASP8AP2 C174 (UniProt Q9UKL3) | 0.0998 | -0.326 | 0.457 | -0.227 |
| CAMKMT C25 (UniProt Q7Z624) | 0.0176 | 0.0588 | -0.0723 | 0.0386 |
| C1orf21 C114 | -0.195 | 0.0278 | -0.0932 | 0.104 |
